From US20260193623
For at least one entry, the source does not settle the construct or the ends of the probe. Tags and fusion partners may be left off the protein sequences shown.

What was measured:
Experiment in all cases: activity assay
MG153-30 = system: T1, MG153-30; details: primer extension gel; 3 mM MgCl2, 37 C; protein translated in vitro; protein details: N-terminal Strep; label: 5'-FAM primer; DNA:RNA hybrid
T1 sequence (limits assumed): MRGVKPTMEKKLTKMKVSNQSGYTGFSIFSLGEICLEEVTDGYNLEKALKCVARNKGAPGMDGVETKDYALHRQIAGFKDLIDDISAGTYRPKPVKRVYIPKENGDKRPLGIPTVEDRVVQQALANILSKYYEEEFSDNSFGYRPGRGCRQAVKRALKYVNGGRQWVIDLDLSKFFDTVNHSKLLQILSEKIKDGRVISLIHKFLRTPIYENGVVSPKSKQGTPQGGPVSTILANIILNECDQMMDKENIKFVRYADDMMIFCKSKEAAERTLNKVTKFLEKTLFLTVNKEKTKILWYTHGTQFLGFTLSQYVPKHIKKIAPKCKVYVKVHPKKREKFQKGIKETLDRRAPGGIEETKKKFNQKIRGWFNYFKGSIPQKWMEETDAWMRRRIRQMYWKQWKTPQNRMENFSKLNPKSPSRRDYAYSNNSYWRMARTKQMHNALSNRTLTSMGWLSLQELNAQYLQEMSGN

MG173-10 = system: T2, MG173-10; details: primer extension on general RNA; protein translated in vitro; protein details: N-terminal Strep; label: 5'-FAM primer; DNA:RNA hybrid
T2 sequence (limits assumed): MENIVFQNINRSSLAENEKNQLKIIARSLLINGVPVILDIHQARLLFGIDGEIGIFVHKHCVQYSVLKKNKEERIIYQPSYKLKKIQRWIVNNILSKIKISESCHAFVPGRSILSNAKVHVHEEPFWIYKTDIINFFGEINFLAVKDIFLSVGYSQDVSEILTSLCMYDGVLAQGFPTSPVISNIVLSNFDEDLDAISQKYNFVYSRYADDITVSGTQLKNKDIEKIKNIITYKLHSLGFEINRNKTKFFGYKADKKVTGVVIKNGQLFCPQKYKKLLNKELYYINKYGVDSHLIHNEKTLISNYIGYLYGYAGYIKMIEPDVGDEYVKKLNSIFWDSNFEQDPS

MG153-54 = system: T3, MG153-54; details: primer extension gel; 3 mM MgCl2, 37 C; protein translated in vitro; protein details: N-terminal Strep; label: 5'-FAM primer; DNA:RNA hybrid
T3 sequence (limits assumed): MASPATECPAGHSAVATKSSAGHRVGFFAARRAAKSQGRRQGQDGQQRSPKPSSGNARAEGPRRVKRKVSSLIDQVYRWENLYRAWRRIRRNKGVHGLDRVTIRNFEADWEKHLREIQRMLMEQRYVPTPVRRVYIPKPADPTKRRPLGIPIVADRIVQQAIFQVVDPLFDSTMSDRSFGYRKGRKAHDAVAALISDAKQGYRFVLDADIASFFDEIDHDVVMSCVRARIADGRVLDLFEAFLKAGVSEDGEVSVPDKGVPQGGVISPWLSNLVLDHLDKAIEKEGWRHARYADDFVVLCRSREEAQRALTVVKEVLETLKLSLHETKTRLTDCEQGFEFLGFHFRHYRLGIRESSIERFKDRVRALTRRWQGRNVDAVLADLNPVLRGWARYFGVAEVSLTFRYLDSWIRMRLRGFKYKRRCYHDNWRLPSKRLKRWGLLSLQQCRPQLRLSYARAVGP

Measured: activity on this sequence

GGCAAACCGCCTCTCCCCGCGCGTTGGCCGATTCATTAATGCAGCTGGCACGACAGGTTTCCCGACTGGAAAGGAGACCCGGGCAGTGAGCGCAACGGGTCTCCAATTTAAGCCAGCCCCGACACCCGCCAACACCCGCTGACGCGCCCTGACGGGCTTGTCTGCTCCCGGCATCCGCTTACAGACAAGCTGTGACCGTCTC / GAGACGGTCACAGCTTGTCTG [202-nt RNA template annealed to DNA primer]
active: all assays above
